# From article PMC9935546
# Results are given in words; binding and its absence hold for the method and conditions named. In cells and extracts the contact can be indirect. Some results given as binding are weak or reduced against the parent protein; the word gives no strength. Where a sequence is shown, tags or fusion partners need not be part of it.
# B1: exogenous VDAC2 in NPC cells (two differently tagged copies), P45880 1-294 (protein)
# chain: MATHGQTCARPMCIPPSYADLGKAARDIFNKGFGFGLVKLDVKTKSCSGVEFSTSGSSNTDTGKVTGTLETKYKWCEYGLTFTEKWNTDNTLGTEIAIEDQICQGLKLTFDTTFSPNTGKKSGKIKSSYKRECINLGCDVDFDFAGPAIHGSAVFGYEGWLAGYQMTFDSAKSKLTRNNFAVGYRTGDFQLHTNVNDGTEFGGSIYQKVCEDLDTSVNLAWTSGTNCTRFGIAAKYQLDPTASISAKVNNSSLIGVGYTQTLRPGVKLTLSALVDGKSINAGGHKVGLALELEA
# Target: T1, exogenous VDAC2 in NPC cells (two differently tagged copies), P45880
# T1 chain: B1 chain
# Test: co-IP; two exogenous VDAC2 copies in lysates of NPC cells, with or without IR; precipitated with anti-FLAG antibody
# Settings: remark: other sources report otherwise
binder,measurement,value
B1,binding,binds
